Test results published in PubChem BioAssay AID602313 (National Center for Advancing Translational Sciences (NCATS), 2012).
About 760 (0.19%) of roughly 390,000 compounds were called active. The shares of active, inactive and inconclusive entries below differ from those in the screen. Calls come from the whole dose curve; as a rule, active = well fitted inhibition curve with a large enough effect; inconclusive = small, poorly fitted or top-dose-only effect; inactive = flat fitted curve, though single readings scatter. Where the call is inconclusive, the potency comes from a doubtful curve fit.

test: qHTS for Inhibitors of Vif-A3F Interactions: qHTS; conditions: HeLa A3F-eYFP + Vif (tagged APOBEC3F with the HIV-1 protein that degrades it), YFP fluorescence increase; series mostly up to 46.1 µM; note: nearly all actives have a fitted effect of over 65% in size
In short: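 Fluorescence increase (Ex 488/Em 500-530) after overnight compound treatment at 37 deg C flags inhibition of Vif-driven A3F-eYFP loss in stable HeLa A3F-eYFP/Vif cells seeded overnight beforehand.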
Potency is the fitted concentration of half-maximal effect.

Compound | Potency
COc1ccc(N(CC(=O)NCc2ccc(F)cc2)C(=O)CCC(=O)Nc2nccs2)cc1 | inconclusive: 1.26 µM [inhibitor, partial curve, poor fit]
CCN(Cc1cc(=O)n2ccsc2n1)Cc1nc2ccccc2c(=O)[nH]1 | inconclusive: 35.5 µM [inhibitor, single point]
CCCOc1ccc(N2CC(C(=O)Nc3cccc(Cl)c3Cl)CC2=O)cc1 (stereo not drawn) | inconclusive: 35.5 µM [inhibitor, single point]
O=C(COc1cccc2c1CCN(Cc1ccccc1)C2=O)N1CCCCC1 | inconclusive: 3.16 µM [inhibitor, single point]
O=C(NC(=S)N1CCN(c2ccccc2)CC1)c1ccco1 | inconclusive: 22.4 µM [inhibitor, partial curve, poor fit]
Clc1nssc1=Nc1nncs1 | inactive
O=C(CN1CCCCC1)Nc1c2c(nc3ccccc13)N(c1ccccc1)CC2 | inconclusive: 6.31 µM [inhibitor, partial curve, poor fit]
CCOC(=O)N1CCN(S(=O)(=O)c2ccc(C(=O)Nc3sc4c(c3C(N)=O)CCN(CC)C4)cc2)CC1 | inconclusive: 35.5 µM [inhibitor, single point]
COC(=O)c1ccc(NC(=O)c2ccc(NS(=O)(=O)c3cccc4cccnc34)cc2)cc1 | inconclusive: 35.5 µM [inhibitor, single point]
CCOc1ccc2c(c1)ncn2Cc1ccccc1 | inconclusive: 2.24 µM [inhibitor, partial curve, poor fit]
COC(=O)CCCC(=O)NC1CC(C)(C)Cc2c1cnn2-c1ccc(C)cc1 (stereo not drawn) | inconclusive: 3.16 µM [inhibitor, single point]
C/C(=N\Nc1nccnc1Cl)c1ccc(O)cc1 | inactive
Cc1ccc(NC(=O)/C=C/c2ccc([N+](=O)[O-])s2)cc1 | active: 7.94 µM
CC(C(=O)c1ccc(Br)cc1)[n+]1cccc2ccccc21 (stereo not drawn) | inconclusive: 20 µM [inhibitor, partial curve, poor fit]
Fc1ccc(-c2cc(C(F)(F)F)nc(NCc3cccs3)n2)cc1 | inconclusive: 11.2 µM [inhibitor, partial curve, poor fit]
N#CCSc1ccccc1NC(=O)COc1ccc(-c2nnco2)cc1 | inconclusive: 17.8 µM [inhibitor, partial curve, poor fit]
CCN1CCN(c2cc(C)c3cc(NC(=O)c4cc(OC)cc(OC)c4)ccc3n2)CC1 | inconclusive: 35.5 µM [inhibitor, single point]
O=C(NC(=S)Nc1ccc(Cl)cc1)c1ccccc1 | inactive
COc1ccc(C(C)NC(=S)NCc2ccc(F)cc2)cc1 (stereo not drawn) | inconclusive: 22.4 µM [inhibitor, single point]
COc1ccc(NC(=O)c2oc3ccccc3c2NC(=O)Cc2ccc(F)cc2)c(OC)c1 | inactive
COc1ccccc1-c1cc(C(F)(F)F)nc(S(=O)(=O)CCCC(=O)O)n1 | inactive
O=C(N/N=C/c1cc(O)ccc1Br)c1cccnc1 | inconclusive: 3.98 µM [inhibitor, full curve, poor fit]
COc1ccc(C)cc1NC(=O)N1CCC(CO)(CC2CCCCO2)CC1 (stereo not drawn) | inconclusive: 3.16 µM [inhibitor, partial curve, poor fit]

13 of the compounds above, tab-delimited:
Compound	Potency
COc1ccc(N(CC(=O)NCc2ccc(F)cc2)C(=O)CCC(=O)Nc2nccs2)cc1	inconclusive: 1.26 µM [inhibitor, partial curve, poor fit]
CCN(Cc1cc(=O)n2ccsc2n1)Cc1nc2ccccc2c(=O)[nH]1	inconclusive: 35.5 µM [inhibitor, single point]
CCCOc1ccc(N2CC(C(=O)Nc3cccc(Cl)c3Cl)CC2=O)cc1 (stereo not drawn)	inconclusive: 35.5 µM [inhibitor, single point]
O=C(COc1cccc2c1CCN(Cc1ccccc1)C2=O)N1CCCCC1	inconclusive: 3.16 µM [inhibitor, single point]
O=C(NC(=S)N1CCN(c2ccccc2)CC1)c1ccco1	inconclusive: 22.4 µM [inhibitor, partial curve, poor fit]
Clc1nssc1=Nc1nncs1	inactive
O=C(CN1CCCCC1)Nc1c2c(nc3ccccc13)N(c1ccccc1)CC2	inconclusive: 6.31 µM [inhibitor, partial curve, poor fit]
CCOC(=O)N1CCN(S(=O)(=O)c2ccc(C(=O)Nc3sc4c(c3C(N)=O)CCN(CC)C4)cc2)CC1	inconclusive: 35.5 µM [inhibitor, single point]
COC(=O)c1ccc(NC(=O)c2ccc(NS(=O)(=O)c3cccc4cccnc34)cc2)cc1	inconclusive: 35.5 µM [inhibitor, single point]
CCOc1ccc2c(c1)ncn2Cc1ccccc1	inconclusive: 2.24 µM [inhibitor, partial curve, poor fit]
COC(=O)CCCC(=O)NC1CC(C)(C)Cc2c1cnn2-c1ccc(C)cc1 (stereo not drawn)	inconclusive: 3.16 µM [inhibitor, single point]
C/C(=N\Nc1nccnc1Cl)c1ccc(O)cc1	inactive
Cc1ccc(NC(=O)/C=C/c2ccc([N+](=O)[O-])s2)cc1	active: 7.94 µM

Next part.

Compound | Potency
CCOc1ccc(NC(=O)c2oc3ccccc3c2NC(=O)C(C)Oc2ccccc2)cc1 (stereo not drawn) | inactive
C=CCOc1ccc(/C=C2\SC(=Nc3cccnc3)NC2=O)cc1 | inconclusive: 25.1 µM [inhibitor, single point]
Cc1cccc(OCCNc2ccc(C(F)(F)F)cc2[N+](=O)[O-])c1 | inconclusive: 35.5 µM [inhibitor, single point]
CC(C)(C)NC(=O)CN(c1cccc([N+](=O)[O-])c1)S(=O)(=O)c1ccccc1 | inconclusive: 6.31 µM [inhibitor, single point]
CCOc1ccc(Sc2cc(C(=O)NCCc3ccc(OC)c(OC)c3)c3ccccc3n2)cc1 | inactive
O=C(NCc1cccc(C(F)(F)F)c1)c1ccc(=O)[nH]c1 | inconclusive: 35.5 µM [inhibitor, single point]
COc1ccc([N+](=O)[O-])cc1Nc1c2ccccc2nc2ccccc12 | inconclusive: 17.8 µM [inhibitor, single point]
CC1CC(CC(C)C(=O)NC(=S)Nc2ccc(S(N)(=O)=O)cc2)C(=O)O1 (stereo not drawn) | inconclusive: 3.55 µM [inhibitor, single point]
CC(C)c1ccc(Nc2nc3ccc(C(=O)c4ccccc4)cc3n3cnnc23)cc1 | inconclusive: 12.6 µM [inhibitor, partial curve, poor fit]
Cc1cc(C(=O)Nc2ccc(OCc3ccccc3)cc2)c(C)o1 | inactive
O=C(Nc1cc(Cl)ccc1-n1cncn1)c1ccc([N+](=O)[O-])s1 | inconclusive: 20 µM [inhibitor, partial curve, poor fit]
N#C/C(=N\Nc1ccc(Cl)cc1)C(N)=S | inconclusive: 11.2 µM [inhibitor, partial curve, poor fit]
O=C(C1=C(O)C(=O)N(CC2CCCO2)C1c1ccccc1Cl)c1ccco1 (stereo not drawn) | inactive
O=C(Nc1nc2c(F)cccc2s1)C1CC1 | inactive
COC(CNC(=O)Cc1c(C)nc2c(-c3ccccc3)c(C)nn2c1C)OC | inactive
Oc1[nH]c2ccccc2c1N=Nc1ccccn1 | inactive
O=C(NC1=CC(=O)c2ccccc2C1=O)c1ccccc1 | inconclusive: 10 µM [inhibitor, partial curve, poor fit]
CCOC(=O)CN1C(=O)S/C(=C/c2ccc(N3CCCCC3)o2)C1=O | active: 31.6 µM
O=C(CN1CCN(Cc2ccccc2Cl)C1=O)NCc1ccccc1Cl | inactive
Cc1cc(C)n2c(SC/C(O)=C(\C#N)c3nc4ccccc4[nH]3)nnc2n1 | inconclusive: 6.31 µM [inhibitor, single point]
Cn1nc(-c2ccc(Cl)cc2)c2cc(C(=O)NCCCN3CCCC3)sc21 | inconclusive: 22.4 µM [inhibitor, single point]
CN1Cc2sc(NC(=S)NC(=O)c3ccccc3)c(C#N)c2CC1(C)C | inconclusive: 10 µM [inhibitor, partial curve, poor fit]
COC(=O)CN1C(=O)S/C(=C/c2cc(C)n(C)c2C)C1=O | inactive

Compound | Potency
CC(C)[C@H](NC(=O)c1ccccc1Cl)C(=O)Nc1nc(-c2ccccn2)cs1 | inconclusive: 25.1 µM [inhibitor, single point]
CN(C)C(CNC(=O)c1ccc(-c2ccccc2)cc1)c1ccccc1 (stereo not drawn) | inactive
Cc1ccc(C(=O)NNC(=O)c2ccc(S(=O)(=O)N3CCCCC3)cc2)cc1 | inconclusive: 4.47 µM [inhibitor, partial curve, poor fit]
CCN(CC)c1ccc(C=C(c2nnnn2-c2ccccc2)c2nnnn2-c2ccccc2)cc1 | inconclusive: 20 µM [inhibitor, partial curve, poor fit]
NC(=O)N/N=C/c1c(F)c(F)c(F)c(F)c1F | inactive
CC1=CC(=O)Nc2ccccc2S1 | inconclusive: 35.5 µM [inhibitor, single point]
O=C(NCc1ccc(F)cc1)C1CCCN(S(=O)(=O)c2cccc3nonc23)C1 (stereo not drawn) | inconclusive: 25.1 µM [inhibitor, single point]
COCc1cc(C)nc(SCC(=O)Nc2ccc3[nH]c(=O)[nH]c3c2)c1C#N | inconclusive: 10 µM [inhibitor, partial curve]
COC(=O)C(C)(C)ONC(=O)Nc1ccc(C)cc1 | inconclusive: 35.5 µM [inhibitor, single point]
CCOC(=O)Cn1ccc(-c2ccccc2)c(C#N)c1=O | inconclusive: 2 µM [inhibitor, partial curve, poor fit]
O=[N+]([O-])c1ccc(N/N=C/c2cccs2)nc1 | inconclusive: 35.5 µM [inhibitor, single point]
Cc1cccc(NC(=O)CN2C(=O)S/C(=C\c3ccc(-c4cccc(C(=O)O)c4C)o3)C2=O)c1 | inactive
Cc1cc(C)c(C(=O)/C=C/c2ccc(C(C)C)cc2)c(=O)[nH]1 | inactive
Nc1c(C(=O)Nc2ccc(Cl)c(C(F)(F)F)c2)sc2nc(-c3ccncc3)ccc12 | inconclusive: 22.4 µM [inhibitor, single point]
O=C(Nc1ccccc1)c1nn(-c2ccccc2)c(=O)cc1C(F)(F)F | inconclusive: 11.2 µM [inhibitor, partial curve, poor fit]
Cn1c(=O)c(N)c2c3c(c(Br)ccc31)C(=O)c1ccccc1-2 | inconclusive: 2.51 µM [inhibitor, full curve, poor fit]
O=C(NCc1ccccc1Cl)c1nnc(CS(=O)(=O)c2ccccc2)o1 | inactive
COc1c(Cl)cc(Cl)cc1/C=C(\C#N)c1nc2ccccc2[nH]1 | inconclusive: 3.16 µM [inhibitor, single point]
O=CC(=O)c1ccccc1 | inconclusive: 35.5 µM [inhibitor, single point]
NC(=O)CC(NC(=O)c1ccc(Br)cc1)c1ccc(NCc2ccc(F)c(F)c2)c([N+](=O)[O-])c1 (stereo not drawn) | inconclusive: 35.5 µM [inhibitor, single point]
Cc1ccc(CCNC(=O)CCn2c(=O)c3cccn3c3ccc(F)cc32)cc1 | inconclusive: 35.5 µM [inhibitor, single point]
CC(=O)N1CCN(C(=S)c2ccc(-c3ccc(Cl)cc3)o2)CC1 | inactive
